# Measured values published in PubChem BioAssay AID1347076 (National Center for Advancing Translational Sciences (NCATS), 2019).
# In all, about 400,000 compounds went through this assay and about 13,000 (3.2%) were called active. This list was built around the results that the source calls inconclusive (neither active nor inactive); the mix of calls is not that of the screen. Calls come from the whole dose curve; as a rule, active = well fitted cell-killing curve with a large enough effect; inconclusive = small, poorly fitted or top-dose-only effect, or effect the other way; inactive = flat fitted curve, though single readings scatter. Potencies of inconclusive entries are doubtful fits and often do not repeat.
# Assay: qHTS assay for MDR1-selective chemotherapeutics: Primary screen using the drug-selected MDR subline cells KB-V1; note: nearly all actives have a fitted effect of over 60% in size
# Settings: KB-V1 MDR cells viability, CellTiter-Glo, 72 h; activity change, negative = cytotoxicity: at 46.1 µM (top of the series)
# Summary of the method: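 KB-V1, DMEM (no phenol red) + 10% FBS; cpd pin-transferred, titration series; 72 h, 37 degrees C; CellTiter-Glo, luminescence. Data normalized, curve-fit.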
# % is set by controls: 0 for no effect and ±100 for the full control effect; potency is the fitted concentration of half-maximal effect.
Compound,Potency,"activity change, negative = cytotoxicity"
Nc1ncnc2c1ncn2[C@@H]1O[C@H](CNC(=O)[C@@H](N)COCc2ccccc2)[C@@H](O)[C@H]1O,"inconclusive: 0.731 µM [rising, full curve]",
O=C(NCc1cccnc1)C1CCCN(S(=O)(=O)c2ccc(Br)cc2)C1 (stereo not drawn),"inconclusive: 23.1 µM [cytotoxic, partial curve]",
COC(=O)c1ccc(Oc2cc(C)nc(SC)n2)cc1,active: 4.61 µM,
COc1cc(C(=O)NNC(=S)NC(=O)c2ccc3c(c2)OCO3)cc(OC)c1OC,,inactive: -27%
O=C(Nc1nnc(-c2ccco2)s1)C1CCN(S(=O)(=O)c2ccc(Cl)cc2)CC1,"inconclusive: 10.3 µM [cytotoxic, partial curve]",
c1ccc(CCn2nnnc2C(c2cccnc2)N2CCN(c3ccccc3)CC2)cc1 (stereo not drawn),active: 10.3 µM,
O=C(CCn1c(=S)[nH]c2cc3c(cc2c1=O)OCO3)NCc1ccccc1Cl,"inconclusive: 20.6 µM [rising, single point]",
COc1ccc(C2N(C(=O)C(F)(F)F)C(C)CN2S(=O)(=O)c2ccc(C)cc2)cc1 (stereo not drawn),,inactive: -3.37%
O=C(CCCn1c(=O)c2sccc2n(Cc2cc(=O)n3ccccc3n2)c1=O)NCc1ccco1,"inconclusive: 10.3 µM [cytotoxic, single point]",
Cc1ccccc1NC(=O)/C=C/c1cccs1,"inconclusive: 29.1 µM [cytotoxic, single point]",
CCOc1ccc(C(=O)N2CCC3(CC2)NCCc2[nH]cnc23)cc1,,inactive: 9.51%
Cc1ccc(/C=N/NC(=O)c2nnn(-c3nonc3N)c2CSc2ccccc2)s1,,inactive: 2.91%
CCCCCCCOC(=O)C1=C(C)Nc2ncnn2C1c1cccs1 (stereo not drawn),"inconclusive: 20.6 µM [cytotoxic, single point]",
Cc1ccc(C(c2nnnn2C2CCCCC2)N2CCc3ccccc32)cc1 (stereo not drawn),"inconclusive: 0.92 µM [cytotoxic, full curve, poor fit]",
Cc1nnc(NC(=O)CN2CCN(Cc3c(Cl)cccc3Cl)CC2)s1,"inconclusive: 29.1 µM [cytotoxic, single point]",
CCOCCCNC(=O)C(c1ccc(Cl)cc1)N1CCN(c2ccccc2)CC1 (stereo not drawn),,inactive: 1.7%
COc1ccc(NC(=O)CSCC(=O)N(C)Cc2cccc(OC)c2OC)cc1,"inconclusive: 8.2 µM [cytotoxic, partial curve]",
Cc1ccc(N=C2NC(=O)C(CO)(CO)S2)cc1,"inconclusive: 29.1 µM [rising, single point]",
O=C(C1CCC1)N1CCc2cc(S(=O)(=O)Nc3ccc4c(c3)OCO4)ccc21,"inconclusive: 12.6 µM [cytotoxic, partial curve]",
COc1ccc(C(=O)c2c(-c3cccc(C)c3)oc3ccc(N4CCOCC4)cc23)cn1,"inconclusive: 25.9 µM [cytotoxic, partial curve, poor fit]",
Fc1ccc(-c2nc3c(-c4ccc(F)cc4)cnn3cc2CCN2CCOCC2)cc1,"inconclusive: 23.1 µM [cytotoxic, partial curve, poor fit]",
Cc1cccc(C(=O)NNc2ncnc3c2cnn3-c2ccc(C)cc2C)c1,,inactive: 13.3%
CCOc1ccc(Nc2nc(NCCN3CCOCC3)nc(OC)n2)cc1,active: 18.4 µM,

Compound,Potency,"activity change, negative = cytotoxicity"
CC(C)c1nc2cc(C(=O)N(C)Cc3ccc(F)cc3)ccc2o1,"inconclusive: 16.4 µM [cytotoxic, single point]",
O=C(NCc1ccc(F)cc1)C1(c2cccs2)CCOCC1,"inconclusive: 23.1 µM [cytotoxic, partial curve, poor fit]",
CCc1ccc(C2C(C(=O)O)c3ccccc3C(=O)N2C)cc1 (stereo not drawn),,inactive: -0.865%
O=C(CCCN1C(=O)/C(=C\c2ccco2)SC1=S)Nc1ccc(O)cc1C(=O)O,"inconclusive: 20.6 µM [rising, partial curve, poor fit]",
COCCNC(=O)c1onc(CSc2ccc(F)c(F)c2)c1C(=O)NCCOC,,inactive: 13%
O=S(=O)(O)c1cccc(N=Nc2c(O)ccc3ccccc23)c1,"inconclusive: 13 µM [cytotoxic, partial curve]",
COc1ccc(-c2cc(CNC(C)=O)on2)cc1,"inconclusive: 29.1 µM [rising, single point]",
Cc1ccc(OCC(=O)c2cc(C)n(Cc3cccs3)c2C)c([N+](=O)[O-])n1,"inconclusive: 20.6 µM [cytotoxic, partial curve, poor fit]",
CSc1ccccc1C(=O)NCCS(=O)(=O)N1CCN(c2ccc(F)cc2)CC1,"inconclusive: 10.3 µM [cytotoxic, partial curve]",
CCOC(=O)c1c(NC(C)=O)sc(/C(C)=N/Nc2ccc(C(=O)O)cc2)c1C,,inactive: 7.45%
CC(C)Cn1c(N)c(C(=O)COC(=O)c2cc(C3CC3)nc3ccccc23)c(=O)n(C)c1=O,"inconclusive: 14.6 µM [cytotoxic, partial curve, poor fit]",
O=C(NCN1CCc2ccccc2C1)c1cnccn1,"inconclusive: 16.4 µM [rising, partial curve, poor fit]",
Clc1ccc(SCc2cc(-c3ccccc3)on2)cc1,"inconclusive: 9.2 µM [rising, partial curve]",
CCOC(=O)CC(NC(=O)C1c2ccccc2Oc2ccccc21)c1ccccc1Cl (stereo not drawn),"inconclusive: 4.61 µM [cytotoxic, full curve, poor fit]",
COc1ccccc1NC(=O)Nc1nc(CC(=O)NCc2ccccn2)cs1,,inactive: -1.45%
Cc1cc2c(cc1S(=O)(=O)N1CCOCC1)NC(=O)CO2,"inconclusive: 20.6 µM [rising, single point]",
CC(c1ccon1)N(C)Cc1c(C(=O)N(C)Cc2ccccc2)nc2ccccn12 (stereo not drawn),"inconclusive: 3.66 µM [cytotoxic, partial curve]",
COCCNC(=O)C(=O)Nc1ccc(Cl)cc1C,"inconclusive: 18.4 µM [cytotoxic, single point]",
CN(C)c1nc2c(c(=O)[nH]c(=O)n2C)n1CCCc1ccccc1,"inconclusive: 25.9 µM [cytotoxic, partial curve, poor fit]",
COc1ccc(NC(=O)CSc2nc(O)cc(=O)n2C)cc1,"inconclusive: 20.6 µM [rising, single point]",
CCc1c(C)nc2ncnn2c1N1CCN(S(=O)(=O)c2ccc(OC)cc2)CC1,,inactive: 0%
O=C(Cc1ccc([N+](=O)[O-])cc1)NCC1CCCO1 (stereo not drawn),,inactive: 5.5%
Cc1nc2c(OCc3ccc(Cl)cc3Cl)cccn2c1N(C)Cc1cccs1,"inconclusive: 29.1 µM [cytotoxic, single point]",

# Pulled by structure from the list above:
Compound,Potency,"activity change, negative = cytotoxicity"
Cc1cc2c(cc1S(=O)(=O)N1CCOCC1)NC(=O)CO2,"inconclusive: 20.6 µM [rising, single point]",
O=S(=O)(O)c1cccc(N=Nc2c(O)ccc3ccccc23)c1,"inconclusive: 13 µM [cytotoxic, partial curve]",
COCCNC(=O)c1onc(CSc2ccc(F)c(F)c2)c1C(=O)NCCOC,,inactive: 13%
O=C(NCc1ccc(F)cc1)C1(c2cccs2)CCOCC1,"inconclusive: 23.1 µM [cytotoxic, partial curve, poor fit]",

# More entries

Compound,Potency,"activity change, negative = cytotoxicity"
CCCN(CC(=O)Nc1ccccc1C)C(=O)c1ccc(C2SCCS2)cc1,"inconclusive: 10.3 µM [cytotoxic, partial curve]",
COc1cccc(CNC(=O)CN2C(=O)CSc3ccc(S(=O)(=O)N4CCCCC4)cc32)c1,"inconclusive: 0.58 µM [cytotoxic, full curve, poor fit]",
O=C(Nc1nccs1)c1ccc(Cl)cc1[N+](=O)[O-],"inconclusive: 16.4 µM [cytotoxic, single point]",
CCN1C(=O)N[C@@H](c2cccc(C(F)(F)F)c2)C(C(=O)OC)=C1C,,inactive: 26.3%
CC(C)Sc1nsc2nc(=O)c(/C=C3\C=Nc4ccccc43)c(N)n12,,inactive: 13.6%
COc1cc2c(cc1OC)CN(C(=O)CCOc1ccccc1C)CC2,active: 16.4 µM,
COc1ccc([C@H]2CC(=O)c3c(O)cc(O)cc3O2)cc1O,"inconclusive: 1.03 µM [rising, full curve, poor fit]",
C=CCn1c(COc2ccc(F)cc2)nnc1SC(C)C(=O)NCC1CCCO1 (stereo not drawn),,inconclusive: -34.9% [cytotoxic]
OC[C@H]1O[C@@H](Oc2ccc3cc(Br)ccc3c2)[C@H](O)[C@@H](O)[C@H]1O,"inconclusive: 29.1 µM [rising, single point]",
CCOc1ccc(CNCc2c(C(=O)O)c(C)n(Cc3c(F)cccc3Cl)c2C)cc1OC,"inconclusive: 29.1 µM [rising, single point]",
O=C1Nc2ccccc2C12OCC1(CO2)COC2(OC1)C(=O)Nc1ccccc12 (stereo not drawn),,inactive: -20.7%
CC(C)(C)c1csc(N/N=C/c2ccc(O)cc2)n1,,inactive: 2.42%
CC1CCCN(S(=O)(=O)c2ccc3c(c2)c(=O)nc2ccccn23)C1 (stereo not drawn),"inconclusive: 29.1 µM [rising, single point]",
CN(C(=O)CSc1n[nH]c(N)n1)C1CCCCC1,"inconclusive: 29.1 µM [rising, single point]",
O=c1c2ccccc2c(C=Nc2cccc(O)c2)c(O)n1-c1ccc2c(c1)OCO2,,inactive: -22%
COc1ccccc1-n1c(CCC(=O)O)ccc1-c1ccccc1,"inconclusive: 29.1 µM [rising, single point]",
O=C(Cc1ccc(F)cc1)NC1CCS(=O)(=O)C1 (stereo not drawn),,inactive: 12.4%
CC1CC(C)CN(c2ccc(NS(=O)(=O)c3ccccc3)cc2C(=O)O)C1 (stereo not drawn),,inactive: -0.0351%
NS(=O)(=O)c1ccc(NC(=O)CCCCC(=O)Nc2ccc(S(N)(=O)=O)cc2)cc1,"inconclusive: 10.3 µM [rising, partial curve]",
CC(=O)O[C@@]12CO[C@@H]1C[C@H](O)[C@@]1(C)C(=O)[C@H](O)C3=C(C)[C@@H](OC(=O)[C@H](O)[C@@H](NC(=O)OC(C)(C)C)c4ccccc4)C[C@@](O)([C@@H](OC(=O)c4ccccc4)[C@H]21)C3(C)C,"inconclusive: 25.9 µM [cytotoxic, partial curve, poor fit]",
N#Cc1sc(NCc2ccccn2)nc1Cl,,inactive: -2.86%
CC(C)c1ccc(S(=O)(=O)N2CCC(N3CCN(Cc4ccccc4)C(=O)C3=O)CC2)cc1,"inconclusive: 29.1 µM [rising, single point]",
